# Primary screen of a compound library

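Assay on Mycobacterium tuberculosis, filed only as a heat shock assay from Cornell; the read-out is not stated. The concentration is filed as 10 mM, unlikely as a test dose, so the dose is not known. Higher reads as stronger inhibition (inferred: compounds with an IC50 in retests scored well above the rest). About 69,000 compounds were tested under these conditions; 1.4% (about 930) showed 50% or more at least once.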

The filed quantity is “Percent Effect” (%).
The controls that fix the scale are not given in the record; negative values are as filed.
The compounds are a random part of those screened.

structure	effect
O=C(O)c1ccc2c(c1)C1(CCCCC1)CN2C(=O)c1cccs1	-14.72%
CCOCCNC(=O)C(CCSC)NC(=O)c1ccc2ccccc2n1 (stereo not drawn)	-1.883%
O=C(NCC1CCS(=O)(=O)C1)c1ccc(NC(=O)c2ccco2)cc1 (stereo not drawn)	-7.381%
COc1cc(C2CC(=O)Nc3c2c(=O)[nH]n3C2CCCCC2)ccc1O (stereo not drawn)	2.446%
CCCn1ccnc1CN1CCCC(CC)(CO)C1 (stereo not drawn)	2.407%
Cc1ccccc1CN1CCCC1c1cccc(Nc2nccs2)n1 (stereo not drawn)	106.1%
COCCN1C(=O)C2(CCC(C(=O)Nc3ccccn3)CC2)N=C1C (stereo not drawn)	13.84%
CS(=O)(=O)N1CCN(C(=O)Cn2ccc3c(Cl)cccc32)CC1	-20.07%
CN1CCCN(C[C@@H]2CN(C(=O)N3CCOCC3)C[C@@H]2CO)CC1	-19.16%
CC(=O)Nc1cc(-c2cccc(F)c2F)n[nH]1	1.207%
CC(C)SCc1cccc(NC(=O)NC(C)c2nc[nH]n2)c1 (stereo not drawn)	12.27%
COCCNC(=O)c1cc(OC)ccc1Br	21.05%
CCN(CC)C(=O)CNS(=O)(=O)c1cc(Br)ccc1F	5.065%
CCOc1ncccc1NC(=O)N1CCN(c2ccc(O)cc2)CC1	24.99%
CC1CCN(C(=O)Cc2ccc(S(=O)(=O)C(F)F)cc2)CC1	13.31%
CN(C)CCNc1ncccc1CNC(=O)Nc1cc(F)cc(F)c1	-2.031%
Cc1csc(Nc2nccnc2C2CCCN2S(C)(=O)=O)n1 (stereo not drawn)	-4.822%
CC(c1cccnc1)N(C)Cc1ccccn1 (stereo not drawn)	9.433%
c1cncc(N2CCC(c3ccncc3)CC2)c1	-4.788%
Cc1nnc(NCC2(c3ccc(Cl)cc3Cl)CCOCC2)c(C#N)c1C	-0.8611%
Nc1cc2c(nn1)CCN(C(=O)Cc1ccc3c(c1)CCCC3)C2	12.28%
[H][C@]12COC[C@@H](NS(C)(=O)=O)[C@@]1([H])CN(Cc1ccoc1)C2	-14.53%
COc1ccnc(N2CCN(C(=O)N3CCOCC3)CC2)n1	-8.188%
O=C(c1ccc(-c2nc[nH]n2)cc1)N1CC[C@H](CO)[C@@H](O)C1	23.53%
Cc1ccc(CN2CCc3c(COC(C)C)nn(C)c3C2)s1.O=C(O)C(F)(F)F	-11.83%
CC(=O)N(C)Cc1cncc(C2CCCN2C2CCOCC2)n1 (stereo not drawn)	-6.871%
Cc1ncsc1C(=O)NCc1cc2n(n1)CCN(C(=O)N(C)C)C2	-10.25%
O=C(c1ccc2ccccc2c1)C1CCCN(C(=O)Cn2cncn2)C1 (stereo not drawn)	-18.56%
CC(C)(C)n1cc(CNC2CCN(C(=O)c3ccncc3)CC2)cn1	-9.094%
CCc1noc(C(C)N2CCN(CCOCC(F)(F)F)CC2)n1 (stereo not drawn)	15.09%
COc1cc(C)c(S(=O)(=O)CC(=O)N(C)C2CC2)cc1OC	-19.17%
Cc1nc(CC(=O)N2CCN(C(C)c3ccccc3F)CC2)cs1 (stereo not drawn)	-1.747%
CCN(CC)C(CNC(=O)c1cccnc1-n1cncn1)c1ccsc1 (stereo not drawn)	2.938%
Fc1cccc(C2CCCN2Cc2nnnn2C2CC2)c1 (stereo not drawn)	-4.203%
CCN1CCC(NC(=O)c2ccc(F)cc2I)CC1	16.42%
CCc1noc(CN(C)C(=O)C2COc3ccccc3C2)n1 (stereo not drawn)	-23.95%
Cc1cccc(NS(=O)(=O)c2cc3c(c(C(=O)O)c2)OCCO3)c1	-6.212%
Cc1nn(C)cc1CN1CCN(CC2(c3ccccc3)CC2)CC1	-9.481%
[H][C@@]12OCCC[C@]1([H])N(S(C)(=O)=O)C[C@H]2NC(=O)c1ccno1	13.15%
NC(=O)C1CCN(c2nc3nccc(-c4ccccc4)c3c(=O)[nH]2)CC1	-19.59%
CN(CCO)Cc1cc(=O)n2cc(Br)ccc2n1	-19.83%
Nc1ccc(C(=O)N2CCCC(c3nccn3Cc3cscn3)C2)cn1 (stereo not drawn)	-7.155%
CCC(=O)NCC(CC)Oc1cccc(F)c1 (stereo not drawn)	10.07%
COC1CCN(c2ccc(F)cc2CN(C)S(C)(=O)=O)CC1	-22.8%
Cc1c(NCc2ccc(C#N)cc2)cccc1S(=O)(=O)NC1CC1	50.41%
O=C(NS(=O)(=O)c1cc(Cl)sc1Cl)c1cccc2c1OCCO2	6.69%
COCCCc1nc(-c2ccc(S(=O)(=O)N3CCCC3)cc2)cs1	7.313%
Cc1ccc2c(c1)CCC2NCc1c(C)nn(CCO)c1C.Cl (stereo not drawn)	4.493%
Cc1nc(O)cc([C@@H]2CN(S(=O)(=O)N(C)C)C[C@H]2c2ccccc2F)n1	14.69%
Cl.Cl.O[C@@H]1C[C@@](CNCc2ccc(F)cc2)(COc2cccnc2)C[C@@H]1O	-45.16%
Cc1cc(N(C)C)nc(N2CCn3c(nnc3C(C)C)C2)n1	-5.778%
Cc1ccc(S(=O)(=O)N2CSCC2C(=O)NCC(F)(F)F)cc1C (stereo not drawn)	-8.55%
O=C(O)C(F)(F)F.[H][C@@]12OCCN(C(=O)COc3ccccc3)[C@@]1([H])CC[C@H]2OCCN(C)C	10.1%
COc1ccc(-n2ccc(CNCc3cccc(OC)c3)n2)cc1	-10.94%
Cc1ccc(C(=O)N(C)CCCc2cnn(C)c2)cc1N1CCNC1=O	-5.119%
CCn1cc2c(n1)CN(Cc1ccc(C)o1)CC2COCC1CC1.O=C(O)C(F)(F)F (stereo not drawn)	1.051%
N#Cc1cccnc1OC1CCN(S(=O)(=O)c2ccc(F)c(Cl)c2)CC1	17.29%
CC(C)c1nc2n(n1)CC(NCc1nc(C3CC3)no1)CC2 (stereo not drawn)	-0.2073%
COCC1CN(Cc2ccoc2)Cc2nn(CC3CC3)cc21.O=C(O)C(F)(F)F (stereo not drawn)	-30.32%
CC(C)c1cc(C(=O)N2CCC3(CCc4ccccc4C(=O)N3)C2)on1 (stereo not drawn)	-8.183%
CNC(=O)c1cccc(CNC2CCSc3c(Cl)cccc32)c1 (stereo not drawn)	9.328%
COc1ccccc1OCCCc1cc(C)nc(N)n1	-5.699%
COc1ccc(C)nc1NC(=O)CCc1c(C)nn(C)c1C	-18.22%
Cc1noc(C)c1CN(C)C(=O)C1CCCc2ccccc21 (stereo not drawn)	6.66%

8 of the entries, repeated:

- Cc1ccc(C(=O)N(C)CCCc2cnn(C)c2)cc1N1CCNC1=O : -5.119%
- CCC(=O)NCC(CC)Oc1cccc(F)c1 (stereo not drawn) : 10.07%
- NC(=O)C1CCN(c2nc3nccc(-c4ccccc4)c3c(=O)[nH]2)CC1 : -19.59%
- CN(C)CCNc1ncccc1CNC(=O)Nc1cc(F)cc(F)c1 : -2.031%
- Cc1cccc(NS(=O)(=O)c2cc3c(c(C(=O)O)c2)OCCO3)c1 : -6.212%
- Cl.Cl.O[C@@H]1C[C@@](CNCc2ccc(F)cc2)(COc2cccnc2)C[C@@H]1O : -45.16%
- COC1CCN(c2ccc(F)cc2CN(C)S(C)(=O)=O)CC1 : -22.8%
- CC(C)c1cc(C(=O)N2CCC3(CCc4ccccc4C(=O)N3)C2)on1 (stereo not drawn) : -8.183%

Source: ChEMBL document CHEMBL3988442, “University of Dundee, Small-Polar-MMV Screening Library” (2021).